The values that follow come from article PMC7643154.

The chains behind the UniProt entries cited, without tags or fusion partners.
UniProt P15976: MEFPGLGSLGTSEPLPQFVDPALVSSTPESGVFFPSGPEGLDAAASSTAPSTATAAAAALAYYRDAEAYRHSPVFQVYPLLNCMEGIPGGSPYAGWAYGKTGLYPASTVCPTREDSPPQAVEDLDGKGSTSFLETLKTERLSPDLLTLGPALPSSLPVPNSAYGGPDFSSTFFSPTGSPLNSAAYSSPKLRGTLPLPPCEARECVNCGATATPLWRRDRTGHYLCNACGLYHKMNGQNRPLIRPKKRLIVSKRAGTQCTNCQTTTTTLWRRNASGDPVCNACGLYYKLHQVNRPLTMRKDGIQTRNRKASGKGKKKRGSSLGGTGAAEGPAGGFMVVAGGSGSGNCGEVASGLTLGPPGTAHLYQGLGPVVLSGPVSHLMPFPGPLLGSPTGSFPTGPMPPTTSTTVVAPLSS
UniProt P17679: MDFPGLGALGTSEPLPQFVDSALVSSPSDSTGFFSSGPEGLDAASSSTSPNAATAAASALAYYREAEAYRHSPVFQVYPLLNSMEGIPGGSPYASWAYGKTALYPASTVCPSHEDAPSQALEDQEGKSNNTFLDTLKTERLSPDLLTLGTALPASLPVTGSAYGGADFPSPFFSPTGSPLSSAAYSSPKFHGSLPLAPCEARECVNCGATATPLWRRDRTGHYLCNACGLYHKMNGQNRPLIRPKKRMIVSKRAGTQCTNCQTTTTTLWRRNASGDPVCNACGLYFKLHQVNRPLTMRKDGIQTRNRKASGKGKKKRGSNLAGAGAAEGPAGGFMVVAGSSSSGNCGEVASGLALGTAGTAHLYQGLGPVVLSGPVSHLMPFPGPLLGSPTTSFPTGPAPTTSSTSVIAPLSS

Test [1] addresses GATA-1 (human, endogenous in K562 cells) (human (endogenous in K562)) (UniProt P15976). Briefly: co-IP; GATA-1 precipitated with GATA-1 antibody on Dynabeads Protein A from K562 cells, FOG-1 detected by western blotting; cells treated with 0, 0.5, 1 or 2 uM AsIII for 48 h or with the zinc chelator TPEN. A general note: In western blotting, separated proteins are transferred to a membrane and probed.

In test [2] the target is GATA-1 (mouse, endogenous in primary bone marrow erythroid cells) (mouse (endogenous in primary mouse bone marrow erythroid cells)) (UniProt P17679). Briefly: co-IP; GATA-1 precipitated with GATA-1 antibody on Dynabeads Protein A from primary mouse bone marrow erythroid cells, FOG-1 detected by western blotting; cells treated with 0, 0.1 or 0.5 uM AsIII for 24 h.

These are yes or no findings as the source states them, for the method shown. In cells and extracts the contact can be indirect. Some binding calls cover weakened binding; strength is not graded here.

B1: friend of GATA-1 (FOG-1) (human, endogenous in K562 cells) (protein, UniProt Q8IX07 1-1006)
chain: MSRRKQSNPRQIKRSLGDMEAREEVQLVGASHMEQKATAPEAPSPPSADVNSPPPLPPPTSPGGPKELEGQEPEPRPTEEEPGSPWSGPDELEPVVQDGQRRIRARLSLATGLSWGPFHGSVQTRASSPRQAEPSPALTLLLVDEACWLRTLPQALTEAEANTEIHRKDDALWCRVTKPVPAGGLLSVLLTAEPHSTPGHPVKKEPAEPTCPAPAHDLQLLPQQAGMASILATAVINKDVFPCKDCGIWYRSERNLQAHLLYYCASRQGTGSPAAAATDEKPKETYPNERVCPFPQCRKSCPSASSLEIHMRSHSGERPFVCLICLSAFTTKANCERHLKVHTDTLSGVCHSCGFISTTRDILYSHLVTNHMVCQPGSKGEIYSPGAGHPATKLPPDSLGSFQQQHTALQGPLASADLGLAPTPSPGLDRKALAEATNGEARAEPLAQNGGSSEPPAAPRSIKVEAVEEPEAAPILGPGEPGPQAPSRTPSPRSPAPARVKAELSSPTPGSSPVPGELGLAGALFLPQYVFGPDAAPPASEILAKMSELVHSRLQQGAGAGAGGAQTGLFPGAPKGATCFECEITFSNVNNYYVHKRLYCSGRRAPEDAPAARRPKAPPGPARAPPGQPAEPDAPRSSPGPGAREEGAGGAATPEDGAGGRGSEGSQSPGSSVDDAEDDPSRTLCEACNIRFSRHETYTVHKRYYCASRHDPPPRRPAAPPGPPGPAAPPAPSPAAPVRTRRRRKLYELHAAGAPPPPPPGHAPAPESPRPGSGSGSGPGLAPARSPGPAADGPIDLSKKPRRPLPGAPAPALADYHECTACRVSFHSLEAYLAHKKYSCPAAPPPGALGLPAAACPYCPPNGPVRGDLLEHFRLAHGLLLGAPLAGPGVEARTPADRGPSPAPAPAASPQPGSRGPRDGLGPEPQEPPPGPPPSPAAAPEAVPPPPAPPSYSDKGVQTPSKGTPAPLPNGNHRYCRLCNIKFSSLSTFIAHKKYYCSSHAAEHVK
In the case of B1, the binding entry in test [1] was “binds”.

B2: friend of GATA-1 (FOG-1) (mouse, endogenous in primary bone marrow erythroid cells) (protein, UniProt O35615 1-995)
chain: MSRRKQSNPRQIKRSLRDMEAGEEAKAMDSSPKEQEAPDPEAPAIEEPPSPPREDVSPPAVPAPPESPEDPEDMEGQELEMRPQDEEKEEKEEEAAMASPWSGPEELELALQDGQRCVRARLSLTEGLSWGPFYGSIQTRALSPEREEPGPAVTLMVDESCWLRMLPQVLTEEAANSEIYRKDDALWCRVTKVVPSGGLLYVRLVTEPHGAPRHPVQEPVEPGGLAPVHTDIQLLPQQAGMASILATAVINKDVFPCKDCGIWYRSERNLQAHLLYYCASRQRAGSPVSATEEKPKETYPNERVCPFPQCRKSCPSASSLEIHMRSHSGERPFVCLICLSAFTTKANCERHLKVHTDTLSGVCHNCGFISTTRDILYSHLVTNHMVCQPGSKGEIYSPGAGHPAAKLPPDSLAGFQQHSLMHSPLVPADKAPTPSSGLDSKAEVTNGETRVPPQNGGSSESPAAPRTIKVEAAEEPEATRASGPGEPGPQAPSRTPSPHSPNPVRVKTELSSPTPGSSPGPGELTMAGTLFLPQYVFSPDAGTTTVPTAPQASEILAKMSELVHNRLQQGAGSSGAAGTPTGLFSGTKGATCFECEITFNNINNFYVHKRLYCSGRRAPEDPPTVRRPKAATGPARAPAGAAAEPDPSRSSPGPGPREEEASGTTTPEAEAAGRGSEGSQSPGSSVDDAEDDPSRTLCEACNIRFSRHETYTVHKRYYCASRHDPPPRRPPAPTTAPGPAAPALTAPPVRTRRRRKLYELPAAGAPPPAAGPAPVPVVPSPTAELPSSPRPGSASAGPAPALSPSPVPDGPIDLSKRPRRQSPDAPTALPALADYHECTACRVSFHSLEAYLAHKKYSCPAAPLRTTALCPYCPPNGRVRGDLVEHLRQAHGLQVAKPAASPGAEPRTPAERAPRDSPDGRAPRSPSPAPENTPSDPADQGARTPSKGPPAPAPAPGGGGGHRYCRLCNIRFSSLSTFIAHKKYYCSSHAAEHVK
For B2, the binding entry in test [2] was “binds”.
